Assay results from US6921762B2, “Substituted indolizine-like compounds and methods of use” (Amgen Inc., priority 2001, dated 2005).
Some results were stated once for a whole list of compounds, not compound by compound.

System: LPS induced TNF release
Assay: Lipopolysaccharide-activated THP1 Cell TNF Production Assay
Format: cell-based, human
Conditions: THP1 cells

Row | Compound | IC50 [µM] | IC50 (listed as 2-(8-(4-fluorophenyl)-7-(4-pyridyl)-1,2,4-triazolo [4,3-c]pyrimidin-5-yl)amino-2) [µM] | IC50 (listed as 5-(1-piperazinyl)-8-(3-methylphenyl)-7-(2-chloro-4-pyridyl)-1,2,4-triazolo [4,3-) [µM]
1 | CC(C)(Nc1nc(-c2ccncc2)c(-c2ccc(F)cc2)c2nncn12)c1ccccc1 [2-(8-(4-fluorophenyl)-7-(4-pyridyl)-1,2,4-triazolo[4,3-c]pyrimidin-5-yl)amino-2-phenylpropane] | ≤ 20 | ≤ 5 | –
2 | Cc1cccc(-c2c(-c3ccnc(Cl)c3)nc(N3CCNCC3)n3cnnc23)c1 [5-(1-piperazinyl)-8-(3-methylphenyl)-7-(2-chloro-4-pyridyl)-1,2,4-triazolo[4,3-c]pyrimidine] | ≤ 20 | – | ≤ 5
